For this experiment, the target named is T1, Flag-tagged CAD (caspase-activated DNase) (human) (UniProt O76075).
T1 sequence: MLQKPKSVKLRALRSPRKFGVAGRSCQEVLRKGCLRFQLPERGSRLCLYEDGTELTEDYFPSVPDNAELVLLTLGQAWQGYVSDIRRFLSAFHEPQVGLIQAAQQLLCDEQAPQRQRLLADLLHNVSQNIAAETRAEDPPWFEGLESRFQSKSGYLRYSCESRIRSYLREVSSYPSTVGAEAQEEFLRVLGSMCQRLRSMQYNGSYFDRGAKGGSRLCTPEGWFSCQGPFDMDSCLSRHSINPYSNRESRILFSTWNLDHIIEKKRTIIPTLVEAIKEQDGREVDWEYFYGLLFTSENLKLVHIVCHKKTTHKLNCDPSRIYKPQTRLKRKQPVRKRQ
Put plainly: affinity purification with mass spectrometry; Flag-CAD stably overexpressed in HCT116; lysate on anti-Flag magnetic beads at 4 °C overnight; elution with 0.1 M glycine HCl pH 3.0; SDS-PAGE, silver staining, in-gel tryptic digestion, LC-MS/MS.

Amino acid sequences for entries named in this document (tags omitted).
UniProt Q86WV6: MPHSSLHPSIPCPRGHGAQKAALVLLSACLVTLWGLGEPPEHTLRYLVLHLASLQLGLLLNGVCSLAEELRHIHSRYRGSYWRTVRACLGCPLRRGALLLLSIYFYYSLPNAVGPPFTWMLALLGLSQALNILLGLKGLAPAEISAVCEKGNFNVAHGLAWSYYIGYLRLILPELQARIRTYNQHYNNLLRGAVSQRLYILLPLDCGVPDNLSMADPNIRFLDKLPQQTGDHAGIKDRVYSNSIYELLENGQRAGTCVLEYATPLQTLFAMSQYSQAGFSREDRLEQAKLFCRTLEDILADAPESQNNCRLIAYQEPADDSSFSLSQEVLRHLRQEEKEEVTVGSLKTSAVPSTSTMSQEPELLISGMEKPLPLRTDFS

From article PMC12375107 (Cell Death & Disease, 2025) come the findings set out here.

No constants are given. Whether binding was seen depends on the method and setting. In cells and extracts the contact can be indirect. A yes stands for co-enrichment or nearness to the bait. Other partners may have been found. Sequences can lack the tags named with a protein.

In the case of “endogenous STING (from UniProt Q86WV6 1-379)”, the binding entry is recorded as “binds”.
